The record followed here is PubChem BioAssay AID2685 (National Center for Advancing Translational Sciences (NCATS), 2010).

The nature of the experiment: qHTS Assay for Lipid Storage Modulators in Drosophila S3 Cells.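 On cell number change: cells counted by Cell Tracker Red CMTPX staining in the red channel.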 The following applies: BODIPY lipid droplet fluorescence, 18-24 h; for cell number change: measured here: cell count max response, cells fed with added oleic acid. In short, it runs like this:
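Laser-scanning cytometry quantifies lipid droplet accumulation (500–530 nm total intensity; droplet/cell object ratio) in oleic acid-fed (400 uM added) Drosophila S3 cells treated with a concentration series. 20 uM Triacsin C defined 100% inhibition.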

The mark [1] stands for this setting: measured here: lipid fluorescence (Fed channel) AC50, cells fed with added oleic acid.
[2] abbreviates: measured here: cell number channel AC50, cells fed with added oleic acid.

Structures are written as SMILES. The list shows a part of the results. These are further read-outs of the screen, such as a control signal, another cell line or another target. No call is given for them. Compounds called inactive in the main read-out are mostly missing here. Words in brackets tell the shape of the fitted curve; partial curves, single points and poor fits give uncertain potencies.

Regarding `Cc1nnc(NC(=O)C2CCCN(c3ncccn3)C2)s1` (stereo not given), the cell number change came out at 21.8%. In addition, under setting [1], the AC50 is 0.731 µM [rising, single point].
Turning to `Cc1ccc(S(=O)(=O)N2CCOCC2)cc1NC(=O)CSc1nnc(NC2CC2)s1`, the cell number change is 9.34%. Further, the AC50 under setting [1] was 6.51 µM [rising, single point].
For the compound `COc1cc(OC)c(NC(C)C(=O)N2CCCC2)cc1Cl` (stereo not given), the cell number change was 50.5%. Also, the AC50 under setting [2] is 29.1 µM [rising, single point].
Turning to `O=C1C2CC=CCC2C(=O)N1c1ccc(OCC(O)Cn2nnc3ccccc32)cc1` (stereo not given), the cell number change was 99.2%.
For the compound `COc1cc(/C=C/C(=O)OCC(=O)Nc2ccccc2Sc2ccc(Cl)cc2)ccc1O`, the cell number change was 31.1%. The AC50 under setting [2] is 29.1 µM [rising, single point].
Regarding `COc1ccc(C2=NN(c3ccccc3)C(c3ccc(OC)c(OC)c3)C2)cc1` (stereo not given), the cell number change was -43.1%. Also, under setting [2], the AC50 was 14.6 µM [falling, single point]. Further, the AC50 under setting [1] was 32.6 µM [falling, partial curve, poor fit].
For the compound `O=[N+]([O-])c1cccc(CNc2ccc3c(c2)CCC3)c1`, the cell number change was -12.1%. The AC50 under setting [1] is 29.1 µM [rising, single point].
Regarding `COc1ccc(/C=C/C(=O)Nc2c(C)nn(C)c2C)cc1COc1ccc(Cl)cc1Br`, the cell number change is -36.3%. Under setting [2], the AC50 was 29.1 µM [falling, single point]. For the same compound, under setting [1], the AC50 is 29.1 µM [falling, single point].
On to `N/C(=N\OC(=O)CSc1ccccc1)c1cccc([N+](=O)[O-])c1`, for which the cell number change was 27.6%. In addition, the AC50 under setting [1] was 23.1 µM [rising, single point].
Regarding `COc1ccc(CN2CCN(CCc3ccccc3)C(CCO)C2)c(O)c1` (stereo not given), the cell number change was determined as 2.65%. The concentration at half-maximal activity (AC50) under setting [1] is 0.0116 µM [rising, single point].
Turning to `Cc1c(C(=O)N2CCCC2)nnn1-c1nonc1N`, the cell number change was -97.7%. Further, under setting [2], the AC50 is 32.6 µM [falling, partial curve]. Also, the AC50 under setting [1] is 0.00461 µM [falling, full curve, poor fit].
Take `O=S(=O)(Nc1ccc(-c2nc3cccnc3s2)cc1)c1ccccc1F`: the cell number change came to 8.07%. Also, under setting [1], the AC50 is 0.82 µM [rising, full curve, poor fit].
As to `COc1ccc(-c2cc(=O)oc3c(C)c(O)c(CN(C)C)cc23)cc1`, the AC50 under setting [2] is 0.0259 µM [rising, full curve].
As for `O=C(Nc1ccc(Cl)cc1C(=O)Nc1ccc(Br)cn1)c1ccco1`, the cell number change was -16.5%. For the same compound, the AC50 under setting [1] is 0.731 µM [rising, single point].
With `O=C(Nc1nccs1)C12CC3CC(C1)CC(C(=O)Nc1nccs1)(C3)C2`, the cell number change was -37.5%. In addition, the AC50 under setting [2] is 29.1 µM [falling, single point]. Also, the AC50 under setting [1] is 16.4 µM [falling, single point].
On to `CC(=O)NC(CC(=O)NCCOc1ccccc1F)c1ccccc1` (stereo not given), for which the cell number change is 11.7%. Also, the AC50 under setting [1] was 29.1 µM [rising, single point].
`CCCN(CCC)S(=O)(=O)c1ccc(C(=O)NCc2ccc3c(c2)OCO3)cc1`: the cell number change was -1.02%. The AC50 under setting [1] was 29.1 µM [falling, single point].
As for `COc1ccccc1N(CN1CCCC1=O)C(=O)c1c(F)cccc1F`, the cell number change was found to be 6.34%.
Turning to `O=c1cc(-c2ccccc2)cc(-c2ccccc2)n1CCO`, the cell number change came to 30.2%. The AC50 under setting [2] was 25.9 µM [rising, single point]. Under setting [1], the AC50 is 23.1 µM [rising, single point].
On to `O=S1(=O)N=C(N2CCOCC2)c2ccccc21`, for which the cell number change was 7.31%. In addition, under setting [1], the concentration at half-maximal activity (AC50) is 0.00461 µM [falling, full curve, poor fit].
Turning to `CCOc1ccc(Br)cc1S(=O)(=O)NCCN(C)C`, the cell number change is -66.3%. The AC50 under setting [2] is 1.03 µM [falling, full curve]. Under setting [1], the concentration at half-maximal activity (AC50) was 2.31 µM [falling, full curve].
As for `CC(=O)c1sc(NC(=O)c2cc(S(=O)(=O)N3CCOCC3)ccc2F)nc1C`, the cell number change worked out at 4.38%. The concentration at half-maximal activity (AC50) under setting [1] was 0.0517 µM [rising, full curve, poor fit].
Consider `COc1ccccc1Oc1ccc(S(=O)(=O)N2CCN(C)CC2)cc1`, for which the cell number change was determined as 3.38%. The AC50 under setting [2] is 0.82 µM [rising, full curve, poor fit].
`O=C(Cc1ccccc1F)Nc1cc(Cl)ccc1N1CCCC1`: the cell number change stood at 17.9%.
As for `Cc1ccc(NC(=O)CN(C)C(=O)C(C)OC(=O)CNC(=O)c2ccc(Cl)c([N+](=O)[O-])c2)cc1` (stereo not given), the cell number change was determined as 5.38%.
Take `Cc1oc2cc(O)ccc2c(=O)c1Oc1ccc(F)cc1`: the cell number change turned out to be 31.5%. Moreover, the concentration at half-maximal activity (AC50) under setting [2] is 0.731 µM [rising, partial curve, poor fit].
Consider `O=C(CN1CCN(c2ccccc2)CC1)Nc1ccc(Oc2ccccc2)cc1`, for which the half-maximal activity concentration (AC50) under setting [1] is 6.51 µM [rising, single point].
On to `CCOCC(=O)Nc1nc2ccc(S(C)(=O)=O)cc2s1`, for which the cell number change is -2.43%.
For `O=C(NCc1ccccc1Cl)c1ccc2c(=O)n(CC3CCCO3)c(=S)[nH]c2c1` (stereo not given), the cell number change amounted to 9.52%. For the same compound, the AC50 under setting [2] was 2.91 µM [rising, partial curve, poor fit].
With `COc1cc2nc(CN3CCC(Cc4ccccc4)CC3)[nH]c(=O)c2cc1OC`, the cell number change is -1.94%.
As to `CSc1nc(-c2ccccc2)nc(NC(=O)C(C)C)c1C(C)=O`, the cell number change came to 58.6%.
Regarding `COc1ccc2nc(-c3ccc(N)cc3)[nH]c2c1`, the cell number change was -25.4%. Moreover, the AC50 under setting [1] is 23.1 µM [falling, single point].
For the compound `COC(=O)c1ccc(CN2CCN(CCC(C)C)C(CCO)C2)cc1` (stereo not given), the cell number change is -7.28%.
As to `CC(=O)Nc1ccc(S(=O)(=O)Nc2ccc(=O)n(Cc3ccc(Cl)c(Cl)c3)c2)cc1`, the cell number change is -33.7%. In addition, the AC50 under setting [1] is 29.1 µM [falling, single point].
With `CC(C)CN(C(=O)c1ccc(N2CCCC2=O)cc1)C1CCS(=O)(=O)C1` (stereo not given), the cell number change was -42.6%. For the same compound, the AC50 under setting [2] was 20.6 µM [falling, single point].
Take `O=C(O)c1cccc(S(=O)(=O)N2CCCC2)c1`: the cell number change is -36.7%. Further, the AC50 under setting [2] was 0.651 µM [falling, full curve]. In addition, under setting [1], the AC50 is 7.31 µM [falling, partial curve].
On to `Cc1cccc(NC(=O)Nc2ccc3c(c2)N(C)C(=O)CS3)n1`, for which, under setting [1], the AC50 is 0.092 µM [rising, full curve, poor fit].
With `CCc1ccccc1NC(=O)c1ccc(-n2c(C)ccc2C)cc1`, under setting [2], the AC50 was 0.58 µM [rising, single point].
`COc1ccc(-c2ccc3c(N)c(C(=O)c4cccc(OC)c4)sc3n2)cc1`: the cell number change worked out at 147%. Further, the AC50 under setting [2] is 7.31 µM [rising, partial curve].
Take `COc1ccc(C(=O)CCc2nc3ccccc3s2)cc1`: the cell number change was found to be 21.4%. In addition, under setting [1], the AC50 is 0.058 µM [rising, full curve, poor fit].
